What all share (assay): co-IP; ProA-tagged factor purified on human IgG magnetic beads from lysate of yeast cross-linked in vivo with 3% formaldehyde; non-denaturing buffer A (25 mM HEPES pH 7.4, 140 mM KCl, 1.8 mM MgCl2, 0.1% IGEPAL), RNase I digestion (co-purification only marginally affected by RNase treatment), 30 min at 22 °C; western blotting
The target in assay [1] is T1, eIF4E::CBP::ProA (eIF4E tagged with the TAP tag) (yeast (w303a line)) (UniProt P07260).
T1 sequence: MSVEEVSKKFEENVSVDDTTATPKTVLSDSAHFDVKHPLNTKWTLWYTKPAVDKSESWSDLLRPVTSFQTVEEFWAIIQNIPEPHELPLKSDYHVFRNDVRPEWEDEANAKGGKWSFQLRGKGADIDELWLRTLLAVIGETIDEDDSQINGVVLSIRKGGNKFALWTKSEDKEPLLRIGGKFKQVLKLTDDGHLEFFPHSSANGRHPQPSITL

Protein sequences, listed by entry. Tags and fused reporters are not part of them.
UniProt P04147: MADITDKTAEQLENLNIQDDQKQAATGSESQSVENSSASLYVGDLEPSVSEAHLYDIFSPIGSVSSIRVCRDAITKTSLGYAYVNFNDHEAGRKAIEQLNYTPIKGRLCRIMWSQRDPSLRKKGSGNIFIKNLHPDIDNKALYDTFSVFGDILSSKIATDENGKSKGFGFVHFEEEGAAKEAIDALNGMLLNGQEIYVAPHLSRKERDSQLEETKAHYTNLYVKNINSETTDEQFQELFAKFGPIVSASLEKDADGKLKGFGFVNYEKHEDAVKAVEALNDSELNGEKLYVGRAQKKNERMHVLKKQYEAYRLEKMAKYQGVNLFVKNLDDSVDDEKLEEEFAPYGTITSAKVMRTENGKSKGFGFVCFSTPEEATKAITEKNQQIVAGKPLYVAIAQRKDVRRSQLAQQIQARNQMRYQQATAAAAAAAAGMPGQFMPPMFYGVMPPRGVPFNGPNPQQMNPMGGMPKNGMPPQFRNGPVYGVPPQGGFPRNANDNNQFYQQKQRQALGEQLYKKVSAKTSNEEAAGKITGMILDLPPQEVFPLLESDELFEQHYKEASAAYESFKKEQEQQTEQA

For assay [2], the target named is PAB1::ProA (yeast (w303a line)) (UniProt P04147).
Assay [3] addresses T2, eIF4G1:TEV-ProA (yeast (w303a line)) (UniProt P39935).
T2 sequence: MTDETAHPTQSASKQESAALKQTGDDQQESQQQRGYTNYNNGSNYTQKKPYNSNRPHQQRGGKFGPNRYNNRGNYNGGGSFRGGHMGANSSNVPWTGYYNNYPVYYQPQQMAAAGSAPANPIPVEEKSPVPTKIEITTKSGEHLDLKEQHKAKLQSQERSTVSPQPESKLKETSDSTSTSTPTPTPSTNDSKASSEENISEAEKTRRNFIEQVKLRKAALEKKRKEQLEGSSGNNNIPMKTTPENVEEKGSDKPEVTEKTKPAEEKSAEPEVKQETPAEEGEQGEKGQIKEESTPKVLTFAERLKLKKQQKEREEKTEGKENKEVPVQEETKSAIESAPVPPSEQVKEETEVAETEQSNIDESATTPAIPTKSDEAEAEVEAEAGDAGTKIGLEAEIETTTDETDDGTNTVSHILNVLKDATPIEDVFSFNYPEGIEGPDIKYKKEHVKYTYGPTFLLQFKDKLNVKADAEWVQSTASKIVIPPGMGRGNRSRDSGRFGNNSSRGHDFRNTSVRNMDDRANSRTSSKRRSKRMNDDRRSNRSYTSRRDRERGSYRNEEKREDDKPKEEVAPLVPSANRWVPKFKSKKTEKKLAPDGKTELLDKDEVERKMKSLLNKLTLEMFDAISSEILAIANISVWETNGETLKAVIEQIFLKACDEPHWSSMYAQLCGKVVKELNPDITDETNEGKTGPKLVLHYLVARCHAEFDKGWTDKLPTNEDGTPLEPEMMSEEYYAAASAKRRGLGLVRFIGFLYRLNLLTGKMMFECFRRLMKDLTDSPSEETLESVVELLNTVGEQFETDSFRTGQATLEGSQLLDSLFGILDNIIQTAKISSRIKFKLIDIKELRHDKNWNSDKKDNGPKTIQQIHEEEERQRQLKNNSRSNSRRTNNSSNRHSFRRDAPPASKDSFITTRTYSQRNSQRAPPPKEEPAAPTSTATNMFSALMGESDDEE

These are yes or no findings as the source states them, for the method shown. In cells and extracts the contact can be indirect. Some results given as binding are weak or reduced against the parent protein; the word gives no strength. Where a sequence is shown, tags or fusion partners need not be part of it.

Turning to “C-terminally c-myc tagged PAB protein (PAB1) in the eIF4E::TAP line (from UniProt P04147 1-577)”, the binding entry in assay [1] is listed as “binds”.

B1: eIF4G1 (untagged, detected with the antibody raised against amino acids 542-823 of eIF4G1) (protein, UniProt P39935 1-952)
chain: MTDETAHPTQSASKQESAALKQTGDDQQESQQQRGYTNYNNGSNYTQKKPYNSNRPHQQRGGKFGPNRYNNRGNYNGGGSFRGGHMGANSSNVPWTGYYNNYPVYYQPQQMAAAGSAPANPIPVEEKSPVPTKIEITTKSGEHLDLKEQHKAKLQSQERSTVSPQPESKLKETSDSTSTSTPTPTPSTNDSKASSEENISEAEKTRRNFIEQVKLRKAALEKKRKEQLEGSSGNNNIPMKTTPENVEEKGSDKPEVTEKTKPAEEKSAEPEVKQETPAEEGEQGEKGQIKEESTPKVLTFAERLKLKKQQKEREEKTEGKENKEVPVQEETKSAIESAPVPPSEQVKEETEVAETEQSNIDESATTPAIPTKSDEAEAEVEAEAGDAGTKIGLEAEIETTTDETDDGTNTVSHILNVLKDATPIEDVFSFNYPEGIEGPDIKYKKEHVKYTYGPTFLLQFKDKLNVKADAEWVQSTASKIVIPPGMGRGNRSRDSGRFGNNSSRGHDFRNTSVRNMDDRANSRTSSKRRSKRMNDDRRSNRSYTSRRDRERGSYRNEEKREDDKPKEEVAPLVPSANRWVPKFKSKKTEKKLAPDGKTELLDKDEVERKMKSLLNKLTLEMFDAISSEILAIANISVWETNGETLKAVIEQIFLKACDEPHWSSMYAQLCGKVVKELNPDITDETNEGKTGPKLVLHYLVARCHAEFDKGWTDKLPTNEDGTPLEPEMMSEEYYAAASAKRRGLGLVRFIGFLYRLNLLTGKMMFECFRRLMKDLTDSPSEETLESVVELLNTVGEQFETDSFRTGQATLEGSQLLDSLFGILDNIIQTAKISSRIKFKLIDIKELRHDKNWNSDKKDNGPKTIQQIHEEEERQRQLKNNSRSNSRRTNNSSNRHSFRRDAPPASKDSFITTRTYSQRNSQRAPPPKEEPAAPTSTATNMFSALMGESDDEE
In the case of B1, the binding entry in assay [1] was “binds”.

B2: C-terminally GFP-tagged eIF4E (eIF4E::GFP) in the PAB::ProA and eIF4G::ProA lines (protein, UniProt P07260 1-213)
chain: MSVEEVSKKFEENVSVDDTTATPKTVLSDSAHFDVKHPLNTKWTLWYTKPAVDKSESWSDLLRPVTSFQTVEEFWAIIQNIPEPHELPLKSDYHVFRNDVRPEWEDEANAKGGKWSFQLRGKGADIDELWLRTLLAVIGETIDEDDSQINGVVLSIRKGGNKFALWTKSEDKEPLLRIGGKFKQVLKLTDDGHLEFFPHSSANGRHPQPSITL
In the case of B2, the binding entry in assay [2] and in assay [3] was “binds” throughout.

Values taken from article PMC4615164.
